For 58 compounds, cell number change and AC50 results are on record in PubChem BioAssay AID2685 (National Center for Advancing Translational Sciences (NCATS), 2010).

The other results are listed elsewhere or left out. The main result of the screen is listed elsewhere. These columns were measured beside it and carry no call. The list favours compounds with an active or inconclusive main result. Potencies come from curve fits of mixed quality, noted in brackets.

A short description of this assay: qHTS Assay for Lipid Storage Modulators in Drosophila S3 Cells.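 As to cell number change: cells counted by Cell Tracker Red CMTPX staining in the red channel.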 The note with it: BODIPY lipid droplet fluorescence, 18-24 h; for cell number change: measured here: cell count max response, cells fed with added oleic acid. In a few lines:
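Laser-scanning cytometry quantifies lipid droplet accumulation (500–530 nm total intensity; droplet/cell object ratio) in oleic acid-fed (400 uM added) Drosophila S3 cells treated with a concentration series. 20 uM Triacsin C defined 100% inhibition.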

Where [1] appears, read: measured here: lipid fluorescence (Fed channel) AC50, cells fed with added oleic acid.
The mark [2] stands for this setting: measured here: cell number channel AC50, cells fed with added oleic acid.

What is called AC50 is the midpoint of the concentration-response curve, whichever way the signal moves. The low end stands for activity at low concentration, the high end for activity only at high concentration.

On to `CCCn1c(SCC(=O)Nc2ccc3c(c2)OCO3)nc2c1c(=O)n(C)c(=O)n2C`, for which the cell number change is -9.83%. Also, the AC50 under setting [1] is 4.61 nM [rising, full curve, poor fit].
As to `CCc1ccc(NC(=O)CCc2c(C)nn(-c3ccc(N4CCCCC4)nn3)c2C)cc1`, the cell number change is -1.22%. Moreover, the half-maximal activity concentration (AC50) under setting [2] is 5.17 nM [rising, full curve, poor fit].
Consider `Nc1nc2ccccc2n1CCOc1ccc(Br)cc1`, for which the cell number change was -50.3%. For the same compound, the concentration at half-maximal activity (AC50) under setting [2] was 10300 nM [falling, partial curve]. For the same compound, the AC50 under setting [1] was 580 nM [falling, single point].
As for `CSc1nnc(N(CCC#N)CCC#N)s1`, the cell number change was 3.14%. Moreover, under setting [1], the concentration at half-maximal activity (AC50) is 20600 nM [rising, single point].
For `Cc1cc(C)c(C(=O)O)c(Cl)n1`, the cell number change came to 36.7%. For the same compound, the half-maximal activity concentration (AC50) under setting [2] is 1840 nM [rising, single point].
Regarding `C#CCOCCOCCOCCNc1nc(N2CCN(C(=O)[C@H](Cc3cc4ccccc4[nH]3)n3cc([C@@H](N)CC(C)C)nn3)CC2)nc(N2CCN(C(=O)[C@H](Cc3cc4ccccc4[nH]3)n3cc([C@@H](N)CC(C)C)nn3)CC2)n1`, the cell number change is -40.2%. For the same compound, under setting [2], the half-maximal activity concentration (AC50) is 29100 nM [falling, single point].
For the compound `Cc1nc(Cc2nnc(SCc3nc(N)nc(Nc4ccccc4C)n3)o2)cs1`, the cell number change is -7.96%. Besides, the half-maximal activity concentration (AC50) under setting [1] is 164 nM [rising, full curve, poor fit].
As for `COc1ccc(NC(=O)C2CCN(c3nc(C)nc4c3CCC4)CC2)cc1`, the cell number change is -4.53%. Under setting [2], the half-maximal activity concentration (AC50) was 116 nM [falling, single point].
Regarding `CCOc1ccc(/C=N/NC(=O)c2[nH]c3ccc(C)cc3c2C)cc1`, the cell number change is 16.2%. For the same compound, the concentration at half-maximal activity (AC50) under setting [1] is 29100 nM [rising, single point].
On to `CCN(CC)S(=O)(=O)c1cccc(-c2cn3cccnc3n2)c1`, for which the cell number change is 30%. Also, the AC50 under setting [2] was 16400 nM [rising, partial curve]. Besides, the AC50 under setting [1] was 3660 nM [rising, partial curve].
`O=C(/C=C/c1ccccn1)c1ccc(Br)cc1O`: the cell number change came to 3.13%. Besides, under setting [1], the AC50 was 517 nM [rising, full curve, poor fit].
`COc1ccc(Br)cc1CNC(=O)CN1C(=O)C(c2ccccc2)Oc2cccnc21` (stereo unspecified): the cell number change is -12.8%. The concentration at half-maximal activity (AC50) under setting [1] was 820 nM [falling, full curve].
With `CCCCN(C)CCCNC(=O)CC1Oc2ccccc2NC1=O` (stereo unspecified), the cell number change was -10.2%. Further, under setting [1], the half-maximal activity concentration (AC50) is 2590 nM [falling, partial curve].
For the compound `CSc1nsc(/C=C/Nc2ccc(F)cc2)c1C#N`, the concentration at half-maximal activity (AC50) runs as follows: under setting [2], 1640 nM [rising, partial curve]; under setting [1], 4110 nM [rising, partial curve, poor fit].
For `Cc1ccc(OCCNC(=O)c2ccc3ccccc3n2)cc1`, the cell number change was -2.63%. The concentration at half-maximal activity (AC50) under setting [1] was 3160 nM [falling, partial curve].
Turning to `O=C(CN1CCSCC1)N/N=C/c1ccc(F)c(F)c1`, the cell number change was determined as 3.62%.
As to `O=C(CCCC(=O)N(CC(=O)NC1CCCCC1)Cc1ccc2c(c1)OCO2)Nc1ccccn1`, the cell number change was 59.1%. For the same compound, the half-maximal activity concentration (AC50) under setting [2] was 10300 nM [rising, partial curve]. The AC50 under setting [1] was 11600 nM [rising, partial curve].
As for `CCOc1ccc(NC(=O)C2CCCN(S(=O)(=O)c3c(C)nn(C)c3C)C2)cc1` (stereo unspecified), the cell number change stood at 33.7%. The AC50 under setting [2] was 16400 nM [rising, single point].
Consider `Cc1ccc(C#N)c(SCc2ccccc2F)n1`, for which the cell number change came to 17.1%. Besides, the half-maximal activity concentration (AC50) under setting [1] is 2910 nM [rising, partial curve].
With `CCC(=O)NNc1ncnc2ccccc12`, the cell number change worked out at 16.2%. Besides, under setting [1], the half-maximal activity concentration (AC50) was 206 nM [rising, partial curve, poor fit].
As for `Cc1ccc(S(=O)(=O)N(C(=O)c2ccncc2)c2ccc(OC(=O)c3ccncc3)c3ccccc23)c(C)c1`, the cell number change was 36.4%. In addition, the concentration at half-maximal activity (AC50) under setting [2] is 29100 nM [rising, single point].
For `CS(=O)(=O)C1=NN2C(=N)/C(=C\c3ccc(OCCOc4ccccc4)cc3)C(=O)N=C2S1`, the cell number change turned out to be 6.34%. In addition, the AC50 under setting [1] was 1840 nM [rising, single point].
As to `CN(C)c1ccnc2sc3c(=O)n(Cc4ccccc4)cnc3c12`, the cell number change is -2.22%. For the same compound, the concentration at half-maximal activity (AC50) under setting [1] was 5800 nM [rising, partial curve].
For `O=C(CCN1C(=O)c2ccccc2C1=O)NCc1ccc(Cl)cc1`, the cell number change worked out at 10.4%. Besides, the AC50 under setting [1] is 580 nM [rising, single point].
Consider `C=C(C)CC(Nc1ccc(OC)cc1)c1ccco1` (stereo unspecified), for which the cell number change is -2.79%. Besides, under setting [1], the half-maximal activity concentration (AC50) is 3660 nM [rising, single point].
For the compound `COc1ccc(CNC(=O)c2[nH]c(C)c(C(C)=O)c2C)cc1`, the cell number change is -5.71%.
Take `O=C(Nc1ccc(-c2nc3ncccc3o2)cc1)c1ccco1`: the cell number change turned out to be 16.2%. The concentration at half-maximal activity (AC50) under setting [2] is 1030 nM [rising, partial curve].
Turning to `Cc1cc(C)c2c(c1)/C(=c1/sc3n(c1=O)CN(c1ccccc1)CN=3)C(=O)N2`, the cell number change worked out at 10.3%. Under setting [2], the half-maximal activity concentration (AC50) was 92 nM [rising, full curve]. The half-maximal activity concentration (AC50) under setting [1] was 146 nM [rising, full curve, poor fit].
Take `Cc1c(Nc2c3ccccc3nc3ccccc23)c(=O)n(-c2ccccc2)n1C`: the cell number change was -34.5%. Also, the AC50 under setting [2] was 32600 nM [falling, single point]. For the same compound, under setting [1], the AC50 is 29100 nM [falling, single point].
Turning to `Oc1ccc(C[C@H]2CNCCN2CCc2cccc3ccccc23)cc1`, the cell number change worked out at 20.3%. Under setting [1], the half-maximal activity concentration (AC50) was 2060 nM [rising, partial curve].
Turning to `Cc1cc(C)nc(-n2nc(C)c3c(C)c(C)c(C)nc32)n1`, the cell number change was 12.3%.
With `COc1ccc(NC(=O)C2CCCN(S(=O)(=O)c3ccc4c(c3)CCCN4C(C)=O)C2)cc1Cl` (stereo unspecified), the cell number change was -30%. For the same compound, the AC50 under setting [2] is 2310 nM [falling, partial curve].
Regarding `COC(=O)c1sccc1NC(=S)N1CCN(c2ccc(F)cc2)CC1`, the cell number change turned out to be 8.36%. For the same compound, under setting [1], the concentration at half-maximal activity (AC50) is 517 nM [rising, single point].
For `CC(/C=C/c1ccc2c(c1)OCO2)=N/NC(=O)C1COc2ccccc2O1` (stereo unspecified), the cell number change was found to be 5.63%. Moreover, under setting [1], the AC50 is 29.1 nM [rising, full curve, poor fit].
As to `Oc1ccc(/C=C/c2ccnc3ccccc23)cc1`, the cell number change is -15.7%. The AC50 under setting [1] is 7310 nM [rising, partial curve].
Take `COc1ccccc1OCC(=O)NN=C(Cc1ccccc1)Cc1ccccc1`: the cell number change is -45.3%. Further, under setting [2], the AC50 was 231 nM [falling, full curve, poor fit]. For the same compound, under setting [1], the half-maximal activity concentration (AC50) is 116 nM [falling, full curve, poor fit].
As to `CCOc1ccc(S(=O)(=O)NCc2ccc(Cl)cc2)c2cccnc12`, the cell number change was 12.7%. In addition, the half-maximal activity concentration (AC50) under setting [2] is 291 nM [rising, partial curve, poor fit]. In addition, under setting [1], the AC50 was 32600 nM [falling, single point].
Turning to `CSCC[C@H](NC(=O)N1CCn2c1nc1ccccc12)C(=O)NCC1CCCO1` (stereo partly specified), the cell number change came out at 3.63%.
Consider `CCCNS(=O)(=O)c1ccc(OCC(=O)NCc2ccc3c(c2)OCO3)cc1`, for which the cell number change was -2.03%. Moreover, under setting [1], the half-maximal activity concentration (AC50) was 7310 nM [rising, partial curve].
Regarding `CC1CCN(C(=O)C2CCN(S(=O)(=O)c3cnc[nH]3)CC2)CC1`, the cell number change was -210%. Further, under setting [2], the AC50 is 18400 nM [falling, partial curve].
Take `CCCCN(C)CCNC(=O)C1CCN(S(=O)(=O)c2cccc3nsnc23)CC1`: under setting [1], the half-maximal activity concentration (AC50) was 580 nM [falling, single point].
On to `Cc1c(Cl)cccc1N(CC(=O)N1CCCCCC1)S(C)(=O)=O`, for which the cell number change worked out at 3.94%. Moreover, the AC50 under setting [1] was 4110 nM [falling, partial curve, poor fit].
As to `O=C(OCC(=O)N1CCc2ccccc21)c1ccccc1F`, the cell number change came to 20.6%. In addition, the AC50 under setting [1] is 326 nM [falling, single point].
On to `CCN1C(=O)[C@H]2[C@@H](c3ccc(C)cc3)N3C(=O)N(c4ccc(C(F)(F)F)cc4)C(=O)[C@@]3(Cc3ccccc3)[C@H]2C1=O`, for which the cell number change worked out at 10.2%.
In the case of `COc1ccc(N2CCCn3c2nc2c3c(=O)n(Cc3ccccc3F)c(=O)n2C)c(OC)c1`, the cell number change came out at 10.2%. For the same compound, the AC50 under setting [2] is 731 nM [rising, single point]. The AC50 under setting [1] is 461 nM [falling, single point].
For the compound `CCCOC(=O)C1=C(C)NC2=C(C(=O)CCC2)C1c1cccc(OC)c1OC` (stereo unspecified), the cell number change was -20.4%. For the same compound, the AC50 under setting [1] is 164 nM [rising, full curve, poor fit].
Turning to `CCc1ccc(N(C(=O)c2ccco2)C(C(=O)NC2CCCC2)c2ccncc2)cc1` (stereo unspecified), the cell number change was -10%.
The same measure, in the same setting: for `CCCCNC(=S)N(CCN(CC)CC)Cc1cc2cc3c(cc2[nH]c1=O)OCO3` the value was 4.39%; for `NS(=O)(=O)c1ccc(NC(=S)NCCc2ccccc2)cc1`, 4.46%.
`COC(=O)C1=C(C)N(Cc2ccccc2)C(=NCc2ccc(OC)cc2)N[C@H]1c1cccc(F)c1`: the cell number change was -8.38%. For the same compound, the AC50 under setting [1] is 29100 nM [rising, single point].
With `COc1ccc(C(=O)C2CCCN(C(=O)c3noc4c3CCCC4)C2)c(C)c1` (stereo unspecified), the cell number change was -27.1%.
With `CCc1nnc(NC(=O)CN2CCN(Cc3cccc(OC)c3)CC2)s1`, the cell number change stood at 7.94%. Further, the AC50 under setting [1] is 29100 nM [rising, single point].
Regarding `COC(=O)C12CCC(C)(c3nc4ccccc4nc31)C2(C)C` (stereo unspecified), the cell number change was -21.5%. Under setting [2], the AC50 is 3260 nM [falling, single point]. In addition, under setting [1], the AC50 was 4110 nM [falling, single point].
Take `Cc1ccc(N2CC(C(N)=O)CC2=O)cc1` (stereo unspecified): the cell number change is -0.215%. For the same compound, the AC50 under setting [1] was 23100 nM [falling, partial curve].
Take `COc1ccc(C(=O)Nc2ncc3c(n2)CC(C)CC3=O)cc1` (stereo unspecified): the cell number change worked out at 39.2%. Also, the half-maximal activity concentration (AC50) under setting [2] is 32600 nM [rising, partial curve, poor fit].
As for `CCOc1ccc(CCNC(=O)c2cc3ccccn3n2)cc1OCC`, the cell number change was -36.8%. Besides, the AC50 under setting [2] is 4.61 nM [falling, full curve, poor fit]. In addition, the AC50 under setting [1] was 29100 nM [falling, single point].
In the case of `COCCNC(=O)c1cnn2c(C(F)(F)F)cc(-c3ccc4c(c3)OCO4)nc12`, under setting [2], the AC50 was 5.8 nM [rising, full curve, poor fit].
Turning to `COc1ccc(CCNC(=O)CN2C(=O)c3cccc4cccc(c34)C2=O)cc1OC`, the cell number change is -59.2%. Further, the concentration at half-maximal activity (AC50) under setting [2] was 1160 nM [falling, full curve]. For the same compound, the AC50 under setting [1] is 51.7 nM [falling, full curve].
